Data published in article PMC12663309.
These are yes or no findings as the source states them, for the method shown. Binding seen in cells or lysates may run through a third protein. Here binding means that the protein was enriched with, or labelled near, the bait; the list need not be complete.

Sequences of proteins named here, by UniProt entry; tags and fusion partners are left off.
UniProt Q8TDX7: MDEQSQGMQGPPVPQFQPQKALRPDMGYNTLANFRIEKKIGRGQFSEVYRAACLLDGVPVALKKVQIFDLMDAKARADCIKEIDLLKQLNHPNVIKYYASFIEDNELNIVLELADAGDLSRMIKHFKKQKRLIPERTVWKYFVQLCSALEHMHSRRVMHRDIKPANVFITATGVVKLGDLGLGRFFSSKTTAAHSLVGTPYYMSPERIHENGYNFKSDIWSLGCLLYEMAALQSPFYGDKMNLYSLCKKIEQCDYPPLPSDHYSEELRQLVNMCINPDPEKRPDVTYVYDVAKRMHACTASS
UniProt P21283: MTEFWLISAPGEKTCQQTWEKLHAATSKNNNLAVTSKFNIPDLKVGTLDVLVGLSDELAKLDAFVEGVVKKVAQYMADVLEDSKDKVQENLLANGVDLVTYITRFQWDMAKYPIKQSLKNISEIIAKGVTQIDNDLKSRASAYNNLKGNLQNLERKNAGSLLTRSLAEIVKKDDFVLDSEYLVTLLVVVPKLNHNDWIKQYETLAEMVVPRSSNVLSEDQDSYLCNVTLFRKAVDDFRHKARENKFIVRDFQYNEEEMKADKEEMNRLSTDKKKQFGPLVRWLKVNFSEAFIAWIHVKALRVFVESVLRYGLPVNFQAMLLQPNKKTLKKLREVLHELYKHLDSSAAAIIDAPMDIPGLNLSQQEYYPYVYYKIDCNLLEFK

Target: NIMA-related kinase 7 (NEK7), endogenous, HepG2 mitochondria (human (endogenous in HepG2)) (UniProt Q8TDX7)
Assay: affinity purification with mass spectrometry; mitochondrial proteins purified from HepG2 cells; co-immunoprecipitation with NEK7 antibody (Abcam) against IgG, agarose magnetic beads, gel, trypsin, LC-MS/MS

## VATC1 (from UniProt P21283 1-382)
  binding: binds
